Measured data: PubChem BioAssay AID1259254 (NCATS, 2017)
The deposit covers about 59,000 reagents; this is an unselected part. In the full data, about 1,550 (2.6%) got an active call. 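G2 share is only a proxy for re-replication; each gene was hit by three separate siRNAs, and active genes were retested.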 A number with no mark means an inactive call. The numbers tell different reagents against one gene apart. Not all columns of the deposit are shown. Not stated in the record: the amount of reagent.

Purpose: 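Genome-wide screen for genes that prevent DNA re-replication in cancer cells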 (primary screen)
System: human HCT116 colorectal cancer cells
Reagents: single siRNA against human genes
Duration: 3 days
Detection: 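Imaged Hoechst DNA stain sorts each cell into a cycle phase by DNA amount; per plate, G2 fraction set to 0% for non-targeting and 100% for GMNN siRNA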
Direction: G2 robust z-score and G2 cells, % of GMNN control: higher = more G2 cells, more excess DNA replication
Active means: 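An siRNA counts as active if its G2 robust z-score lies at least 5 MADs above the screen median; here such calls match roughly 38% of GMNN control or more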

UBAC1 (UBA domain containing 1) #1
- G2 robust z-score: -0.828
- G2 cells, % of GMNN control: -2.86

UBAC1 (UBA domain containing 1) #2
- G2 robust z-score: 0.663
- G2 cells, % of GMNN control: 7.63

UBAC1 (UBA domain containing 1) #3
- G2 robust z-score: -0.373
- G2 cells, % of GMNN control: 0.346

TPPP2 (tubulin polymerization promoting protein family member 2) #1
- G2 robust z-score: 1.12
- G2 cells, % of GMNN control: 10.8

TPPP2 (tubulin polymerization promoting protein family member 2) #2
- G2 robust z-score: 2.1
- G2 cells, % of GMNN control: 17.7

TPPP2 (tubulin polymerization promoting protein family member 2) #3
- G2 robust z-score: -0.376
- G2 cells, % of GMNN control: 0.32

FMN1 (formin 1) #1
- G2 robust z-score: -0.489
- G2 cells, % of GMNN control: -0.471

FMN1 (formin 1) #2
- G2 robust z-score: 0.149
- G2 cells, % of GMNN control: 4.02

FMN1 (formin 1) #3
- G2 robust z-score: -0.535
- G2 cells, % of GMNN control: -0.795

FMN1 (formin 1) #4
- G2 robust z-score: -0.186
- G2 cells, % of GMNN control: 1.66

FMN1 (formin 1) #5
- G2 robust z-score: -0.49
- G2 cells, % of GMNN control: -0.481

FMN1 (formin 1) #6
- G2 robust z-score: 0.623
- G2 cells, % of GMNN control: 7.35

XG (Xg glycoprotein (Xg blood group)) #1
- G2 robust z-score: 3.15
- G2 cells, % of GMNN control: 25.1

XG (Xg glycoprotein (Xg blood group)) #2
- G2 robust z-score: 0.274
- G2 cells, % of GMNN control: 4.9

XG (Xg glycoprotein (Xg blood group)) #3
- G2 robust z-score: 0.126
- G2 cells, % of GMNN control: 3.85

KLK5 (kallikrein related peptidase 5) #1
- G2 robust z-score: 2.46
- G2 cells, % of GMNN control: 20.3

KLK5 (kallikrein related peptidase 5) #2
- G2 robust z-score: 0.0108
- G2 cells, % of GMNN control: 3.04

KLK5 (kallikrein related peptidase 5) #3
- G2 robust z-score: 0.547
- G2 cells, % of GMNN control: 6.81

NCOA3 (nuclear receptor coactivator 3) #1
- G2 robust z-score: -0.624
- G2 cells, % of GMNN control: -1.43

NCOA3 (nuclear receptor coactivator 3) #2
- G2 robust z-score: -0.0946
- G2 cells, % of GMNN control: 2.3

NCOA3 (nuclear receptor coactivator 3) #3
- G2 robust z-score: 0.335
- G2 cells, % of GMNN control: 5.32

GPR6 (G protein-coupled receptor 6) #1
- G2 robust z-score: -0.275
- G2 cells, % of GMNN control: 1.04

GPR6 (G protein-coupled receptor 6) #2
- G2 robust z-score: 2.87
- G2 cells, % of GMNN control: 23.2

GPR6 (G protein-coupled receptor 6) #3
- G2 robust z-score: 6.7 (active)
- G2 cells, % of GMNN control: 50.1

SLC26A4 #1
- G2 robust z-score: -0.785
- G2 cells, % of GMNN control: -2.56

SLC26A4 #2
- G2 robust z-score: -0.303
- G2 cells, % of GMNN control: 0.839

SLC26A4 #3
- G2 robust z-score: 2.29
- G2 cells, % of GMNN control: 19.1

GOT1 (glutamic-oxaloacetic transaminase 1) #1
- G2 robust z-score: -0.843
- G2 cells, % of GMNN control: -2.96

GOT1 (glutamic-oxaloacetic transaminase 1) #2
- G2 robust z-score: 0.338
- G2 cells, % of GMNN control: 5.35

GOT1 (glutamic-oxaloacetic transaminase 1) #3
- G2 robust z-score: 0.943
- G2 cells, % of GMNN control: 9.6
